# Laboratory results: patent US5631230A, “Receptor selective analogues of cholecystokinin-8” (priority 1994, dated 1997)
# pIC50: −log10 of the molar value. At least one compound was matched to its structure with a doubt left. Non-standard residues stand in square brackets, D forms with d. Residues, ends and D or L forms follow the SMILES beside them. *: point of attachment. sY = N[C@@H](Cc1ccc(OS(=O)(=O)O)cc1)C(=O)O; X1 = O=C(O)C[C@H](NS(=O)(=O)O)C(=O)*; Nle = CCCC[C@H](N)C(=O)O
# Legend:
# [1] = molecular target: T1, [^125 I] CCK-8 binding sites (CCK receptor), Rat Brain (Rattus norvegicus, UniProt P30553); experiment: Inhibition of [125I] CCK-8 binding, rat brain
# T1 construct: from tissue; host or cells: rat brain
# T1 sequence (P30553 1-452): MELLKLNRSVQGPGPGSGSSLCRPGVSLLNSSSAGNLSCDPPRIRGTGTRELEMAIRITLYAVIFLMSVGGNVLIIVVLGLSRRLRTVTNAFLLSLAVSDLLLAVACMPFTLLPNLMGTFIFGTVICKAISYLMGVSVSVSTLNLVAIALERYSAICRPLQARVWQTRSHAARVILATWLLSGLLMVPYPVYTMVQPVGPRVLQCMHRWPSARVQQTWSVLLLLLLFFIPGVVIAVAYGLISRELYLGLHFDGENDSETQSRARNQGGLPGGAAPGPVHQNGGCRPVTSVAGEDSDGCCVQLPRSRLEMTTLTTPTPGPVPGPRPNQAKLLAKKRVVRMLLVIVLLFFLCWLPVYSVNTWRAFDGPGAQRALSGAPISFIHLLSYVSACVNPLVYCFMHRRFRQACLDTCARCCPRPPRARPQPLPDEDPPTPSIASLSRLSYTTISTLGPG
# [2] = molecular target: T2, [^125 I] CCK-8 binding sites (CCK receptor), Rat Pancreas (Rattus norvegicus, UniProt P30551); experiment: Inhibition of [125I] CCK-8 binding, rat pancreas
# T2 construct: from tissue; host or cells: rat pancreas
# T2 sequence (P30551 1-444): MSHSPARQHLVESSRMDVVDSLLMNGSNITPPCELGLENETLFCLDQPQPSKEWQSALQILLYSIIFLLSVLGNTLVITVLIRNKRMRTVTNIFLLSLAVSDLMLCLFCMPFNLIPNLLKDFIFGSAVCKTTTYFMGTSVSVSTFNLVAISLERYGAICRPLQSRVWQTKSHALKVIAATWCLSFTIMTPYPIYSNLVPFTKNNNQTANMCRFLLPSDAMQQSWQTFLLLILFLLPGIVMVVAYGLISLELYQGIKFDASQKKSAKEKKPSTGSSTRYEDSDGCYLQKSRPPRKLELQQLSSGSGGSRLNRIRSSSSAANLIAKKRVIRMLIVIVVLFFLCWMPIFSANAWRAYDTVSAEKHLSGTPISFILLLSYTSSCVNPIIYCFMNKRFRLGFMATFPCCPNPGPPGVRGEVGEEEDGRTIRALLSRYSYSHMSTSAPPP
smiles,measurement,setting,value
"CCCC[C@H](NC(=O)[C@H](Cc1c[nH]c2ccccc12)NC(=O)CNC(=O)[C@@H](NC(=O)[C@H](Cc1ccc(OS(=O)(=O)O)cc1)NC(=O)[C@H](CC(=O)O)NS(=O)(=O)O)C(C)C)C(=O)N[C@@H](CC(=O)O)C(=O)N[C@@H](Cc1ccccc1)C(N)=O [Compound 11, H-Asp-Tyr-Val-Gly-Trp-Nle-Asp-Phe-NH2 Bis-SO3 θ] (X1-[sY]VGW[Nle]DF-NH2; N-terminus and C-terminus assumed)",pIC50,[1],9.50
same,pIC50,[2],7.97
"CCCC[C@H](NC(=O)[C@H](Cc1c[nH]c2ccccc12)NC(=O)CNC(=O)[C@H](NC(=O)[C@H](Cc1ccc(OS(=O)(=O)O)cc1)NC(=O)[C@H](CC(=O)O)NS(=O)(=O)O)C(C)C)C(=O)N[C@@H](CC(=O)O)C(=O)N[C@@H](Cc1ccccc1)C(N)=O [Compound 12, H-Asp-Tyr-D-Val-Gly-Trp-Nle-Asp-Phe-NH2 Bis-SO3 θ] (X1-[sY][dV]GW[Nle]DF-NH2; N-terminus and C-terminus assumed)",pIC50,[1],8.04
same,pIC50,[2],6.44
